# pIC50: −log10 of the molar value. Some results were stated once for a whole list of compounds, not compound by compound. At least one structure is not confirmed: it was looked up by name or label, or the drawing left a doubt.
# System: HEK293 cells
# Test: CellTiter-Glo Luminescent Cell Viability Assay in HEK293 cells
# Assay type: cell-based, human
# Details: 7 days incubation, 3 μM to 0.00015 μM
# From the text: CellTiter-Glo™ Assay in HEK293 Cells
# The CellTiter-Glo™ Luminescent Cell Viability Assay (Promega) is a homogeneous method of determining the number of viable cells in culture based on quantitation of the ATP present, which signals the presence of metabolically active cells.
# HEK293 cells (human embryonic kidney cell line transformed by Adenovirus 5 fragments, ATCC-No. CRL 1573) were cultivated in Dulbecco's Modified Eagle Medium (DMEM) with Glutamax™ (Invitrogen, 31966-021), 5% Fetal Calf Serum (FCS, Sigma Cat-No. F4135 (FBS)), 100 Units/ml penicillin/100 μg/ml streptomycin (=Pen/Strep from Invitrogen Cat. No. 15140)., For the assay the cells were seeded in 384 well plates, 5000 cells per well, in the same medium. The next day the test compounds were added in various concentrations ranging from 3 μM to 0.00015 μM (10 concentrations, 1:3 diluted). After 7 days the CellTiter-Glo™ assay was done according to the instructions of the manufacturer (CellTiter-Glo™ Luminescent Cell Viability Assay, from Promega). […] After 45 minutes the luminescent signal was measured in Victor 2, (scanning multiwell spectrophotometer, Wallac). […]
# Measurement: • Victor 2 scanning multiwell spectrophotometer (Wallac), Luminescence mode • Determine IC50 with XL-fit (XLfit software (ID Business Solution Ltd., Guilford, Surrey, UK)).
compound,measurement,value
"Cn1nncc1CCCCc1ccc(OCc2coc(/C=C/c3ccc(OC(F)(F)F)cc3)n2)cc1 [Example 1.2, Methyl-5-[4-(4-{2-[(E)-2-(4-trifluoromethoxy-phenyl)-vinyl]-oxazol-4-ylmethoxy}-phenyl)-butyl]-1H-[1,2,3]triazole]",pIC50,6.60 to 8.30
